Measured values published in doi:10.1101/2021.02.18.431817.

Tests used:
OsSAP8:YFP (rice) = target: T1, OsSAP8:YFP (rice) (UniProt A3BDI8); assay: FRET or BRET
T1 sequence: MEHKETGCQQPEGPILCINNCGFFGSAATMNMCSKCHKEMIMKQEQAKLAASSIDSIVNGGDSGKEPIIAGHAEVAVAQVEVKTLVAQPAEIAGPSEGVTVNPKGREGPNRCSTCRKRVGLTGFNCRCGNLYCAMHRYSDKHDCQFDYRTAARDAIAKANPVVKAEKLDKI

OsSAP9:YFP (rice) = target: T2, OsSAP9:YFP (rice) (UniProt Q7Y1W9); assay: FRET or BRET
T2 sequence: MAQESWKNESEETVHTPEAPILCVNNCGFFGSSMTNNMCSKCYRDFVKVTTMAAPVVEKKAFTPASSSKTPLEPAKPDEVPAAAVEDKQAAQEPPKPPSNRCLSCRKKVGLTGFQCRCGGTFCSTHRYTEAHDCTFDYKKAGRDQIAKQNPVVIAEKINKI

Substance	binding (OsSAP8:YFP (rice))	binding (OsSAP9:YFP (rice))
OsCML49a:CFP (rice)	binds	binds
OsCML49b:CFP (rice)	binds	binds

No constants are given. Whether binding was seen depends on the method and setting. Binding seen in cells or lysates may run through a third protein. Binding calls can cover weak binding; strength is not graded here. Tags and fused reporters may be left off the sequences shown.
